For 2 molecules, binding results are on record in publication PMC8405615.

Assay [1] concerns the target T1, MYC-CHFR, full-length checkpoint with forkhead and ring finger domains (human) (UniProt Q96EP1).
T1 sequence: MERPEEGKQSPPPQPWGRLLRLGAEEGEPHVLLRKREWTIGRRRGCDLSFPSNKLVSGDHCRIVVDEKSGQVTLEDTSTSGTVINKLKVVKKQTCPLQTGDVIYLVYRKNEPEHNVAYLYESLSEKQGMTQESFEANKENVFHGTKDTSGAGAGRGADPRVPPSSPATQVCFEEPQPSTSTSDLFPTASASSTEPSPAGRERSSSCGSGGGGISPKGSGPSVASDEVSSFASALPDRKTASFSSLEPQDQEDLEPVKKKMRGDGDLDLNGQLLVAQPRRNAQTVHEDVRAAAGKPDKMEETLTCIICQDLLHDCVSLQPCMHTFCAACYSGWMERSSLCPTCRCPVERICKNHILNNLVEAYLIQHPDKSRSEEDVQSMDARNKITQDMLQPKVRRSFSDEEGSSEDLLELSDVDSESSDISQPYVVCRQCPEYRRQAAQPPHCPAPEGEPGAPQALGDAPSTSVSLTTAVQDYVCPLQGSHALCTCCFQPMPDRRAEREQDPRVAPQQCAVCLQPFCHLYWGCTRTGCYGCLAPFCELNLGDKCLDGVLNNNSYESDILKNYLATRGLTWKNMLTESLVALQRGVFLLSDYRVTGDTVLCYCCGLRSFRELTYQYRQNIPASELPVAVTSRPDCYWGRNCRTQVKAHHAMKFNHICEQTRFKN
As to the kind of experiment: co-IP; ZEB1 truncates transfected with wild-type CHFR into HEK293T cells (Fig. S2a); which partner was precipitated is not told.

The target in assay [2] is MYC-CHFR∆CRD (human) (UniProt Q96EP1). In words: co-IP; HEK293T co-transfected; lysis in NETN buffer (100 mM NaCl, 1 mM EDTA, 20 mM Tris-HCl pH 8.0, 0.5% Nonidet P-40); MYC-tagged protein precipitated on anti-Myc magnetic beads, 4 °C, 2 h; immunoblot.
Assay [3] has as its target MYC-CHFR∆FHA (human) (UniProt Q96EP1). The description is as above.
The target of assay [4] is MYC-CHFR∆RING (human) (UniProt Q96EP1). The description is as above.

These are yes or no findings as the source states them, for the method shown. In cells and extracts the contact can be indirect. For some of these results: A result given as binding can be weak or reduced; the word gives no strength. Where a sequence is shown, tags or fusion partners need not be part of it.

In the case of “ZEB1 N-terminal zinc finger domain (NZF) (domain or fragment)”, the binding result in assay [1] is listed as “binds”.

B1: SFB-ZEB1, triple-epitope (S-protein, FLAG tag, and streptavidin-binding peptide)-tagged zinc finger E-box-binding homeobox 1 (protein, UniProt P37275 1-1124)
chain: MADGPRCKRRKQANPRRNNVTNYNTVVETNSDSDDEDKLHIVEEESVTDAADCEGVPEDDLPTDQTVLPGRSSEREGNAKNCWEDDRKEGQEILGPEAQADEAGCTVKDDECESDAENEQNHDPNVEEFLQQQDTAVIFPEAPEEDQRQGTPEASGHDENGTPDAFSQLLTCPYCDRGYKRFTSLKEHIKYRHEKNEDNFSCSLCSYTFAYRTQLERHMTSHKSGRDQRHVTQSGCNRKFKCTECGKAFKYKHHLKEHLRIHSGEKPYECPNCKKRFSHSGSYSSHISSKKCISLIPVNGRPRTGLKTSQCSSPSLSASPGSPTRPQIRQKIENKPLQEQLSVNQIKTEPVDYEFKPIVVASGINCSTPLQNGVFTGGGPLQATSSPQGMVQAVVLPTVGLVSPISINLSDIQNVLKVAVDGNVIRQVLENNQANLASKEQETINASPIQQGGHSVISAISLPLVDQDGTTKIIINYSLEQPSQLQVVPQNLKKENPVATNSCKSEKLPEDLTVKSEKDKSFEGGVNDSTCLLCDDCPGDINALPELKHYDLKQPTQPPPLPAAEAEKPESSVSSATGDGNLSPSQPPLKNLLSLLKAYYALNAQPSAEELSKIADSVNLPLDVVKKWFEKMQAGQISVQSSEPSSPEPGKVNIPAKNNDQPQSANANEPQDSTVNLQSPLKMTNSPVLPVGSTTNGSRSSTPSPSPLNLSSSRNTQGYLYTAEGAQEEPQVEPLDLSLPKQQGELLERSTITSVYQNSVYSVQEEPLNLSCAKKEPQKDSCVTDSEPVVNVIPPSANPINIAIPTVTAQLPTIVAIADQNSVPCLRALAANKQTILIPQVAYTYSTTVSPAVQEPPLKVIQPNGNQDERQDTSSEGVSNVEDQNDSDSTPPKKKMRKTENGMYACDLCDKIFQKSSSLLRHKYEHTGKRPHECGICKKAFKHKHHLIEHMRLHSGEKPYQCDKCGKRFSHSGSYSQHMNHRYSYCKREAEERDSTEQEEAGPEILSNEHVGARASPSQGDSDERESLTREEDEDSEKEEEEEDKEMEELQEEKECEKPQGDEEEEEEEEEVEEEEVEEAENEGEEAKTEGLMKDDRAESQASSLGQKVGESSEQVSEEKTNEA
As to B1, the binding result in assay [2] is “no binding”; in assay [3], “no binding”; in assay [4], “binds”.
